This test has as its target PHD motif of PHF2 (segment) (human). As to the kind of experiment: pull-down; Flag/SBP-tagged segments purified on streptavidin (SA) affinity beads from lysates of transfected HepG2 or 293T cells after MG132 for 8 h; immunoblotting.

Results are given in words; binding and its absence hold for the method and conditions named. In cells and extracts the contact can be indirect. Binding calls can cover weak binding; strength is not graded here. Tags and fused reporters may be left off the sequences shown.

B1: Flag-tagged rat SREBP1c, amino-terminal fragment (1–403 amino acids) (domain or fragment, UniProt P56720-1 1-403)
chain: MDCTFEDMLQLINNQDSDFPGLFDAPYAGGETGDTGPSSPGASSPESFSSPASLGSSLEAFLGGPKVTPAPLSPPPSAPTAVKMYPSVPPFSPGPGIKEEPVPLTILQPPAPQPSPGTLLPPSFPPPPVQLSPAPVLGYSSLPSGFSGTLPGNTQQTPSSLPLGSTPGISPTPLHTQVQSSAAQQPPPASAAPRMSTVASQIQQVPVVLQPHFIKADSLLLTAVKTDTGATMKTAGINTLAPGTAVQAGPLQTLVSGGTILATVPLVVDTDKLPIHRLAAGGKALGSAQSRGEKRTAHNAIEKRYRSSINDKIVELKDLVVGTEAKLNKSAVLRKAIDYIRFLQHSNQKLKQENLTLRSAHKSKSLKDLVSACGSGGGTDVSMEGMKPEVVETLTPPPSDAGS
As for B1, the binding entry is reported as “binds”.

For the origin of these results see publication PMC10570296.
